Test results reported in patent US20250025488A1, “NUCLEIC ACIDS FOR INHIBITING EXPRESSION OF TMPRSS6 AND IRON CHELATORS” (SILENCE THERAPEUTICS GMBH, priority 2018, published 2025).
Some of these results come from one statement about several compounds together.

Assay: Serum stability assay (50% FBS/FCS, polyacrylamide gel)
Assay type: in vitro ADME
Conditions: 5 μM, 50% FBS, 3 d, native gel electrophoresis

Row | Substance | Serum stability of siRNA duplexes
1 | TMP85: siRNA: ivU at antisense 3′-end, ivG at sense 3′-end (chain 1 AACCAGAAGAAGCAGGUG; chain 2 UCACCUGCUUCUUCUGGUU; 3' inverted ivU and ivG, modifications, chemistry not fully specified) | ivA and ivG confer higher stability to the tested sequence than ivU and ivC
2 | TMP87: siRNA: ivG at antisense 3′-end, ivG at sense 3′-end (chain 1 AACCAGAAGAAGCAGGUG; chain 2 UCACCUGCUUCUUCUGGUU; 3' inverted ivG on both strands, modifications, chemistry not fully specified) | ivA and ivG confer higher stability to the tested sequence than ivU and ivC
3 | TMP90: siRNA: ivG at antisense 3′-end, ivC at sense 3′-end (chain 1 AACCAGAAGAAGCAGGUGA; chain 2 UCACCUGCUUCUUCUGGU; 3' inverted ivG and ivC, modifications, chemistry not fully specified) | no influence of base identity on duplex stability
4 | TMP86: siRNA: ivC at antisense 3′-end, ivG at sense 3′-end (chain 1 AACCAGAAGAAGCAGGUG; chain 2 UCACCUGCUUCUUCUGGUU; 3' inverted ivC and ivG, modifications, chemistry not fully specified) | ivA and ivG confer higher stability to the tested sequence than ivU and ivC
5 | TMP84: siRNA: ivA at antisense 3′-end, ivG at sense 3′-end (chain 1 AACCAGAAGAAGCAGGUG; chain 2 UCACCUGCUUCUUCUGGUU; 3' inverted ivA and ivG, modifications, chemistry not fully specified) | ivA and ivG confer higher stability to the tested sequence than ivU and ivC
6 | TMP88: siRNA: ivG at antisense 3′-end, ivA at sense 3′-end (chain 1 AACCAGAAGAAGCAGGUGA; chain 2 UCACCUGCUUCUUCUGGU; 3' inverted ivG and ivA, modifications, chemistry not fully specified) | no influence of base identity on duplex stability
